Laboratory results published in PMC10229898.
Results are given in words; binding and its absence hold for the method and conditions named. Binding seen in cells or lysates may run through a third protein. Some binding calls cover weakened binding; strength is not graded here. Sequences can lack the tags named with a protein. Blank lines part the entries; values can stand above or below the binder they belong to.

Key:
[1] = molecular target: T1, green fluorescence protein (GFP)-fused CRP2 (cysteine-rich protein 2; cysteine- and glycine-rich protein 2) (UniProt Q16527); assay: co-IP; GFP-Trap magnetic agarose beads (anti-GFP nanobodies) on 1 mg of lysate protein from CRP2-GFP- or GFP-expressing MDA-MB-231 cells; lysis buffer 10 mM Tris-HCl pH 7.5, 150 mM NaCl, 0.5 mM EDTA, 0.5% NP-40; bound fraction probed for SRF and GFP
T1 sequence: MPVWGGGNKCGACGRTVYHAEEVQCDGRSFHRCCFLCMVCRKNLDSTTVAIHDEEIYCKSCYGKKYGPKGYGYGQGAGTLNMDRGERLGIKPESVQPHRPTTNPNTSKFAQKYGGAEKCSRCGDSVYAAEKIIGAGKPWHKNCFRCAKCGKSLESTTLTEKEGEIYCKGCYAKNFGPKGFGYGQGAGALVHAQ

[2] = molecular target: T1, green fluorescence protein (GFP)-fused CRP2 (cysteine-rich protein 2; cysteine- and glycine-rich protein 2); assay: proximity ligation; Duolink PLA in fixed (4% PFA), permeabilised MDA-MB-231 cells expressing CRP2-GFP, 24 h after transfection with FLAG-hSRF; anti-CRP2 and anti-FLAG antibodies; foci counted in nuclei

binding [1]: binds
B1: serum response factor (SRF), endogenous (protein, UniProt P11831 1-508)
chain: MLPTQAGAAAALGRGSALGGSLNRTPTGRPGGGGGTRGANGGRVPGNGAGLGPGRLEREAAAAAATTPAPTAGALYSGSEGDSESGEEEELGAERRGLKRSLSEMEIGMVVGGPEASAAATGGYGPVSGAVSGAKPGKKTRGRVKIKMEFIDNKLRRYTTFSKRKTGIMKKAYELSTLTGTQVLLLVASETGHVYTFATRKLQPMITSETGKALIQTCLNSPDSPPRSDPTTDQRMSATGFEETDLTYQVSESDSSGETKDTLKPAFTVTNLPGTTSTIQTAPSTSTTMQVSSGPSFPITNYLAPVSASVSPSAVSSANGTVLKSTGSGPVSSGGLMQLPTSFTLMPGGAVAQQVPVQAIQVHQAPQQASPSRDSSTDLTQTSSSGTVTLPATIMTSSVPTTVGGHMMYPSPHAVMYAPTSGLGDGSLTVLNAFSQAPSTMQVSHSQVQEPGGVPQVFLTASSGTVQIPVSAVQLHQMAVIGQQAGSSSNLTELQVVNLDTAHSTKSE

binding [2]: binds
B2: SRF-FLAG (FLAG-hSRF) (protein, UniProt P11831 1-508)
chain: B1 chain
